No constants are given. Whether binding was seen depends on the method and setting. Tags and fused reporters may be left off the sequences shown.

Chains of the proteins cited; added tags and fusions are not shown. Lines headed by an entry give the natural chain unless they say otherwise; changes in a name come on top.
UniProt Q709C8: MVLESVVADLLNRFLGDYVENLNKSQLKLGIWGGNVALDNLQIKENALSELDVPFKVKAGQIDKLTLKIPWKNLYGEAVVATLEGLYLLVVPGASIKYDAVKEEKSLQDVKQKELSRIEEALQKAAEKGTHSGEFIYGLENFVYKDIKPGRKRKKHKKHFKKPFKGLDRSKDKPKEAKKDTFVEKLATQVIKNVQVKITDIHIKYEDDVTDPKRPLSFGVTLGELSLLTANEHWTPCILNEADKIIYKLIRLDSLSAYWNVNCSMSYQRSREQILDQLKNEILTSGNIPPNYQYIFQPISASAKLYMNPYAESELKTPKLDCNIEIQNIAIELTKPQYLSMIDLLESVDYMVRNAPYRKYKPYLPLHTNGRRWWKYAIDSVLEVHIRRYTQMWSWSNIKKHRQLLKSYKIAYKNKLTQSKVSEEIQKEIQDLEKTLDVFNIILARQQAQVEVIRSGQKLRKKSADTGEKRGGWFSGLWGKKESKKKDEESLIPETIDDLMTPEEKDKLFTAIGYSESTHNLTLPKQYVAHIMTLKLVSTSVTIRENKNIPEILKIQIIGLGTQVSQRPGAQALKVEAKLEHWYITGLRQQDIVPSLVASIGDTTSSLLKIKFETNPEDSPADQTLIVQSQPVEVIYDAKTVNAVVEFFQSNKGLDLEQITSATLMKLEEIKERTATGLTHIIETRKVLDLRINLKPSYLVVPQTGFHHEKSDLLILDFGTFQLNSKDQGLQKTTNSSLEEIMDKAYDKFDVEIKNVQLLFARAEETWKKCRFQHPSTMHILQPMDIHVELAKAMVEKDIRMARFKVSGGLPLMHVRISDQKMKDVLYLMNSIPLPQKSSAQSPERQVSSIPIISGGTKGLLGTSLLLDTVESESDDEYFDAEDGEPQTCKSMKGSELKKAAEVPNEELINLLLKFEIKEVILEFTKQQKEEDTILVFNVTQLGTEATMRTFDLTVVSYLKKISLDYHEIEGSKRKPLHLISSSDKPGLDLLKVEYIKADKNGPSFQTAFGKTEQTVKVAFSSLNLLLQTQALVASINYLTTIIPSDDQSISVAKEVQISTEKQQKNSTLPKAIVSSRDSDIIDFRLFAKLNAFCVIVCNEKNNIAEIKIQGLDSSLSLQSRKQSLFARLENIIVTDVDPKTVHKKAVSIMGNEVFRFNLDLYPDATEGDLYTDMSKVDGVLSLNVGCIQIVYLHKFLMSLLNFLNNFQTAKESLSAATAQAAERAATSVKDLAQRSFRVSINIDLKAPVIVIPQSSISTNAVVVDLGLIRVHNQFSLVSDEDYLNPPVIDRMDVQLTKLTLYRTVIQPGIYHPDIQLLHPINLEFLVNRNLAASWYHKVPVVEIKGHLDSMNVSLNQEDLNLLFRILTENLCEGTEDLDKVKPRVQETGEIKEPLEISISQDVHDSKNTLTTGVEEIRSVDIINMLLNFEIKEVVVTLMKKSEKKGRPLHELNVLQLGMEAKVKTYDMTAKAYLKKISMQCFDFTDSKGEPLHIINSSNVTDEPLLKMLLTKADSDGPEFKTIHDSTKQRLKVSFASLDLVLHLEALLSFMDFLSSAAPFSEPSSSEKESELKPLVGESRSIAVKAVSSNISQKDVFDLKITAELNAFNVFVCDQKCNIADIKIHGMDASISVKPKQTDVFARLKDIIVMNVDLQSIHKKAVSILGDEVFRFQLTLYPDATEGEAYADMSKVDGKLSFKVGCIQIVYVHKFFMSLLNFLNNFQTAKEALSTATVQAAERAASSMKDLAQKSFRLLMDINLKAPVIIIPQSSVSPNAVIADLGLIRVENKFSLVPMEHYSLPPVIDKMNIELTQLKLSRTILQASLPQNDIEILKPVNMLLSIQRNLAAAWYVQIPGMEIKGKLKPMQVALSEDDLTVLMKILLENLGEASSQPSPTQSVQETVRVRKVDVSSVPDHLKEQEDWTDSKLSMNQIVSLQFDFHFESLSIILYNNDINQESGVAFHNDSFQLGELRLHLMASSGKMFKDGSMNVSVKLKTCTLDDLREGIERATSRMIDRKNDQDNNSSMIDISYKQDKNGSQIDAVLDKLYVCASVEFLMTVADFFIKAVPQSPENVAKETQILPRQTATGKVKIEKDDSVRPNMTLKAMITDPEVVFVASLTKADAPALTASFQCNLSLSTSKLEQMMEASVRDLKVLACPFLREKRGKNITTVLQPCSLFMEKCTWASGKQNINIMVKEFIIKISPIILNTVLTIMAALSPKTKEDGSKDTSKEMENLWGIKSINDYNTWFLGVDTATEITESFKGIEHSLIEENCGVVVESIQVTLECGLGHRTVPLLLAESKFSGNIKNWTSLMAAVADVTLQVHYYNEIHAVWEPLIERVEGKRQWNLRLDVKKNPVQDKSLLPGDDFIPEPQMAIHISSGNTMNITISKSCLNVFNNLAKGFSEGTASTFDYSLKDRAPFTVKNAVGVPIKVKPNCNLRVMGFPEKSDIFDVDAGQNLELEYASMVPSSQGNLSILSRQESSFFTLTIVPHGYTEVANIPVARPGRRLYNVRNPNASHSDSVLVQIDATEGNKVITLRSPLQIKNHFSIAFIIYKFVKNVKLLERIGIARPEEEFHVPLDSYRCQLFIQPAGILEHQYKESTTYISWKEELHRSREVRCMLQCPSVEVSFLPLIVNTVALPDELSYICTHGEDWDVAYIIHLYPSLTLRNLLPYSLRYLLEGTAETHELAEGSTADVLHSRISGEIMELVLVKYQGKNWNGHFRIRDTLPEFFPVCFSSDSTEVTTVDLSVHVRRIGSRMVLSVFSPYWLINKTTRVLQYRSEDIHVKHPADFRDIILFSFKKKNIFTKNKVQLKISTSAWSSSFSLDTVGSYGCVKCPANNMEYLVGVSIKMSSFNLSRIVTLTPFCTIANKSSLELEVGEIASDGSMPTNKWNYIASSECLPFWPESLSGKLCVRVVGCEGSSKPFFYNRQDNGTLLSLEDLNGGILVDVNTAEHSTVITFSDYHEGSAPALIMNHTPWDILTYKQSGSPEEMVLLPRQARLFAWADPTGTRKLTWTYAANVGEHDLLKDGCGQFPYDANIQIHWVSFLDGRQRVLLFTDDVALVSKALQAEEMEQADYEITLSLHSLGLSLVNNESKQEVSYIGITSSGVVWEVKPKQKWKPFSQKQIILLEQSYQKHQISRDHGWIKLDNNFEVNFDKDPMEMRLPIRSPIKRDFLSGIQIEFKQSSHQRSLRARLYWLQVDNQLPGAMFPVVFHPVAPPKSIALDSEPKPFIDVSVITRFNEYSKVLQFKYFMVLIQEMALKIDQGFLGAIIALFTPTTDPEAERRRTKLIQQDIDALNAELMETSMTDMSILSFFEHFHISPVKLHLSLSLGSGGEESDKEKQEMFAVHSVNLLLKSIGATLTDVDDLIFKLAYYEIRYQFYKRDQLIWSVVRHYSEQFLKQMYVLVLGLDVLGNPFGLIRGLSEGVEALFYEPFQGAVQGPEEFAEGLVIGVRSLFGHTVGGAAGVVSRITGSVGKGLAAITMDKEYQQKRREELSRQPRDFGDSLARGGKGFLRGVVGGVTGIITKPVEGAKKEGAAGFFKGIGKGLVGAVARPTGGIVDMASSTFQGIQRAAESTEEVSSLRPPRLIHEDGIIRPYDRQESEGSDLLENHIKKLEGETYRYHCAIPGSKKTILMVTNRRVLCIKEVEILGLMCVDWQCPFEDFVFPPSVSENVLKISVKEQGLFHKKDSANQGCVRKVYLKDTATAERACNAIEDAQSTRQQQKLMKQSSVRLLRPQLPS

The results in this text go back to doi:10.1101/2025.11.10.687702.

For this test, the target named is T1, 6xHis-ATG7 (UniProt O95352).
T1 sequence: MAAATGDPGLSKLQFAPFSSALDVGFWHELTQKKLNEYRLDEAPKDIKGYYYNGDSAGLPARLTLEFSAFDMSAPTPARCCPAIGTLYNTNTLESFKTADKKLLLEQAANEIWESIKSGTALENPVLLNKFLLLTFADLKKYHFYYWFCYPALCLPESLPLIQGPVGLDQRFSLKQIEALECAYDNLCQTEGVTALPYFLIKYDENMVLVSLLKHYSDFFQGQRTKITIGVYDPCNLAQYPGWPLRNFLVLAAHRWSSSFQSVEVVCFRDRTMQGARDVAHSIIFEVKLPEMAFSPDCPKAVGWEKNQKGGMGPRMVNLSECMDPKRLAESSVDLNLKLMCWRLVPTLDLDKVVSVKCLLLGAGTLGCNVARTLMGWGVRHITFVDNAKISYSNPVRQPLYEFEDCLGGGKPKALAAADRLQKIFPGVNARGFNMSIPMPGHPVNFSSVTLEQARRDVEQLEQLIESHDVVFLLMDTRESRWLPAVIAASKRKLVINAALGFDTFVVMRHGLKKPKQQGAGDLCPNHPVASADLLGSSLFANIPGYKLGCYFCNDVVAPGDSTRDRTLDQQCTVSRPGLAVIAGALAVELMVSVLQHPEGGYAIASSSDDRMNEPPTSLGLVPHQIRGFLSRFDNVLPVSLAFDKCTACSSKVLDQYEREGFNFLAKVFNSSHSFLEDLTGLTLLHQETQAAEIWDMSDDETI
The experiment in a line: liposome flotation; purified VPS13C construct with SUVs (84.8% POPC, 10% POPE, 5% DGS-NTA, 0.2% Rhodamine-PE) to which His-tagged Rab7A(QL) or ATG7 was tethered; 1 mM GTP, 2 mM Mg2+, room temperature 20 min; OptiPrep gradient, top fraction on SDS-PAGE; both purified.

Turning to “VPS13C lacking the amphipathic helices of the ATG2_C motif, C-terminal 3xFLAG (from UniProt Q709C8)”, the binding entry is “no binding”.
